Assay results published in article PMC9098524, “Structural basis of ion – substrate coupling in the Na^+-dependent dicarboxylate transporter VcINDY” (Nature Communications, 2022).
Results are given in words; binding and its absence hold for the method and conditions named. Some results given as binding are weak or reduced against the parent protein; the word gives no strength.

Target: Na+-dependent dicarboxylate transporter from Vibrio cholerae (VcINDY) (Vibrio cholerae) (UniProt Q9KNE0)
Experiment: cryo-EM structure; both purified

Na+-dependent dicarboxylate transporter from Vibrio cholerae (VcINDY) (from UniProt Q9KNE0)
binding: binds
